# Data as given in PubChem BioAssay AID270 (DTP/NCI, 2004).
# The list is a part of this screen's results and no random one: it is rich in T/C values a quarter to a half above the control, in often repeated tests (any T/C) and in doses without a T/C. Further doses and runs are listed elsewhere. T/C is the treated group as % of the vehicle group. Some doses have a count of surviving animals in place of a T/C: the source files T/C as zero there, which appears to mark a toxic dose or a test without result, not a measured value. Some survivor counts are full or nearly so, which does not show that the dose was tolerated: survival well below the control is almost never listed, so the zero probably covers shortened survival too. Survivors were counted at the toxicity check, usually on the fifth day, unless a day is given; later deaths do not show. Schedules are NCI's codes, taken here to give the interval after Q, in days (D) or hours (H), and the number of doses after X. Some entries were tested several times; the values are given in rising order. Where survival is the endpoint, the PubChem record calls one and a half times the control and up active, and a quarter to a half above the control has no call in these data; cut-offs in other NCI protocols can differ. Some T/C values are followed by the survivors on the day toxicity was checked, most often the fifth; without a count, all were alive then. Marks such as (2×) stand for listed records that agree.
# System: BDF1 mice, s.c. Lewis lung carcinoma, T/C %
# Assay: NCI In Vivo Anticancer Drug Screen. Data for tumor model Lewis Lung Carcinoma (subcutaneous) in B6D2F1 (BDF1) mice
# How it was run: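 The value reflects a ratio in which the treated cohort's survival time or tumour size is compared against mice receiving only vehicle.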
smiles,measurement,setting,value
O=NN(CCCl)C(=O)NCCCl,survivor count,"T/C endpoint: mean tumor weight, dose: 25.0 mg/kg/injection, schedule: Q01DX011 (ip), vehicle: saline, higher T/C = larger tumour",0 of 6
same,survivor count,"T/C endpoint: mean tumor weight, dose: 50.0 mg/kg/injection, schedule: Q01DX011 (ip), vehicle: saline, higher T/C = larger tumour",0 of 6
same,survivor count,"T/C endpoint: median survival time, dose: 2.0 mg/kg/injection, schedule: Q08HX024 (ip), vehicle: Klucel (hydroxypropylcellulose) (HPC), higher T/C = longer survival",10 of 10
same,survivor count,"T/C endpoint: median survival time, dose: 4.0 mg/kg/injection, schedule: Q08HX024 (ip), vehicle: Klucel (hydroxypropylcellulose) (HPC), higher T/C = longer survival",9 of 10
same,T/C,"T/C endpoint: median survival time, dose: 4.4 mg/kg/injection, schedule: Q01DX005 (ip), vehicle: saline + alcohol, evaluated on day 7, higher T/C = longer survival",141 % of control
same,T/C,"T/C endpoint: median survival time, dose: 4.4 mg/kg/injection, schedule: Q01DX005 (ip), vehicle: saline + alcohol, evaluated on day 15, higher T/C = longer survival",146 % of control
same,T/C,"T/C endpoint: median survival time, dose: 6.5 mg/kg/injection, schedule: Q01DX001 (ip), vehicle: saline + alcohol, higher T/C = longer survival",126 % of control
same,T/C,"T/C endpoint: median survival time, dose: 6.7 mg/kg/injection, schedule: Q01DX005 (ip), vehicle: saline + alcohol, higher T/C = longer survival",134 % of control
same,T/C,"T/C endpoint: median survival time, dose: 6.75 mg/kg/injection, schedule: Q01DX001 (ip), vehicle: Klucel (hydroxypropylcellulose) (HPC), higher T/C = longer survival",141 % of control
same,survivor count,"T/C endpoint: median survival time, dose: 8.0 mg/kg/injection, schedule: Q08HX024 (ip), vehicle: Klucel (hydroxypropylcellulose) (HPC), higher T/C = longer survival",8 of 10
same,T/C,"T/C endpoint: median survival time, dose: 20.0 mg/kg/injection, schedule: Q01DX001 (ip), vehicle: saline + alcohol, higher T/C = longer survival",136 % of control
same,T/C,"T/C endpoint: median survival time, dose: 40.0 mg/kg/injection, schedule: Q01DX001 (ip), vehicle: saline with Tween-80, higher T/C = longer survival",139 % of control
same,survivor count,"T/C endpoint: median survival time, dose: 54.0 mg/kg/injection, schedule: Q01DX001 (ip), vehicle: Klucel (hydroxypropylcellulose) (HPC), higher T/C = longer survival",10 of 10
same,survivor count,"T/C endpoint: median survival time, dose: 80.0 mg/kg/injection, schedule: Q01DX001 (ip), vehicle: saline with Tween-80, higher T/C = longer survival",9 of 10 and 10 of 10
same,survivor count,"T/C endpoint: median survival time, dose: 108.0 mg/kg/injection, schedule: Q01DX001 (ip), vehicle: Klucel (hydroxypropylcellulose) (HPC), higher T/C = longer survival",10 of 10
same,survivor count,"T/C endpoint: median survival time, dose: 160.0 mg/kg/injection, schedule: Q01DX001 (ip), vehicle: Klucel (hydroxypropylcellulose) (HPC), higher T/C = longer survival",6 of 10
same,survivor count,"T/C endpoint: median survival time, dose: 160.0 mg/kg/injection, schedule: Q01DX001 (ip), vehicle: saline with Tween-80, higher T/C = longer survival",0 of 10 and 6 of 10
CC1=C(/C=C/C(C)=C/C=C/C(C)=C/C(=O)O)C(C)(C)CCC1,T/C,"T/C endpoint: median survival time, dose: 1.0 mg/kg/injection, schedule: Q01DX005 (ip), vehicle: saline with Tween-80, evaluated on day 60, higher T/C = longer survival","95, 101, 105 % of control"
same,T/C,"T/C endpoint: median survival time, dose: 1.0 mg/kg/injection, schedule: Q01DX005 (ip), vehicle: saline with Tween-80, evaluated on day 65, higher T/C = longer survival",121 % of control
same,T/C,"T/C endpoint: median survival time, dose: 2.0 mg/kg/injection, schedule: Q01DX005 (ip), vehicle: saline with Tween-80, evaluated on day 60, higher T/C = longer survival","93, 105, 106 % of control [9 of 10 alive]"
same,T/C,"T/C endpoint: median survival time, dose: 2.0 mg/kg/injection, schedule: Q01DX005 (ip), vehicle: saline with Tween-80, evaluated on day 65, higher T/C = longer survival",92 % of control
same,survivor count,"T/C endpoint: median survival time, dose: 3.12 mg/kg/injection, schedule: Q01DX005 (ip), vehicle: saline with Tween-80, higher T/C = longer survival",10 of 10
same,T/C,"T/C endpoint: median survival time, dose: 4.0 mg/kg/injection, schedule: Q01DX005 (ip), vehicle: saline with Tween-80, evaluated on day 60, higher T/C = longer survival","91, 107, 110 % of control"
same,T/C,"T/C endpoint: median survival time, dose: 4.0 mg/kg/injection, schedule: Q01DX005 (ip), vehicle: saline with Tween-80, evaluated on day 65, higher T/C = longer survival",103 % of control
same,survivor count,"T/C endpoint: median survival time, dose: 4.0 mg/kg/injection, schedule: Q01DX009 (ip), vehicle: saline with Tween-80, higher T/C = longer survival",10 of 10
same,T/C,"T/C endpoint: median survival time, dose: 8.0 mg/kg/injection, schedule: Q01DX005 (ip), vehicle: saline with Tween-80, evaluated on day 60, higher T/C = longer survival",95 and 107 % of control (2×)
same,T/C,"T/C endpoint: median survival time, dose: 8.0 mg/kg/injection, schedule: Q01DX005 (ip), vehicle: saline with Tween-80, evaluated on day 65, higher T/C = longer survival",108 % of control
same,survivor count,"T/C endpoint: median survival time, dose: 12.5 mg/kg/injection, schedule: Q01DX005 (ip), vehicle: saline with Tween-80, higher T/C = longer survival",10 of 10
same,T/C,"T/C endpoint: median survival time, dose: 16.0 mg/kg/injection, schedule: Q01DX005 (ip), vehicle: saline with Tween-80, evaluated on day 60, higher T/C = longer survival",103 (2×) and 118 % of control
same,T/C,"T/C endpoint: median survival time, dose: 16.0 mg/kg/injection, schedule: Q01DX005 (ip), vehicle: saline with Tween-80, evaluated on day 65, higher T/C = longer survival",93 % of control
same,survivor count,"T/C endpoint: median survival time, dose: 25.0 mg/kg/injection, schedule: Q01DX005 (ip), vehicle: saline with Tween-80, higher T/C = longer survival",10 of 10
same,T/C,"T/C endpoint: median survival time, dose: 32.0 mg/kg/injection, schedule: Q01DX005 (ip), vehicle: saline with Tween-80, evaluated on day 60, higher T/C = longer survival","104, 106 [9 of 10 alive], 110, 150 % of control"
same,T/C,"T/C endpoint: median survival time, dose: 32.0 mg/kg/injection, schedule: Q01DX005 (ip), vehicle: saline with Tween-80, evaluated on day 65, higher T/C = longer survival",104 % of control
same,survivor count,"T/C endpoint: median survival time, dose: 50.0 mg/kg/injection, schedule: Q01DX005 (ip), vehicle: saline with Tween-80, higher T/C = longer survival",10 of 10
same,T/C,"T/C endpoint: median survival time, dose: 64.0 mg/kg/injection, schedule: Q01DX005 (ip), vehicle: saline with Tween-80, evaluated on day 60, higher T/C = longer survival","97, 99, 102, 145 % of control [9 of 10 alive]"
same,T/C,"T/C endpoint: median survival time, dose: 64.0 mg/kg/injection, schedule: Q01DX005 (ip), vehicle: saline with Tween-80, evaluated on day 65, higher T/C = longer survival",93 % of control
same,survivor count,"T/C endpoint: median survival time, dose: 64.0 mg/kg/injection, schedule: Q01DX009 (ip), vehicle: saline with Tween-80, higher T/C = longer survival",10 of 10
same,survivor count,"T/C endpoint: median survival time, dose: 100.0 mg/kg/injection, schedule: Q01DX005 (ip), vehicle: saline with Tween-80, higher T/C = longer survival",10 of 10
same,T/C,"T/C endpoint: median survival time, dose: 128.0 mg/kg/injection, schedule: Q01DX005 (ip), vehicle: saline with Tween-80, evaluated on day 60, higher T/C = longer survival",107 and 110 % of control
same,T/C,"T/C endpoint: median survival time, dose: 128.0 mg/kg/injection, schedule: Q01DX005 (ip), vehicle: saline with Tween-80, evaluated on day 65, higher T/C = longer survival",118 % of control
same,survivor count,"T/C endpoint: median survival time, dose: 128.0 mg/kg/injection, schedule: Q01DX005 (ip), vehicle: saline with Tween-80, higher T/C = longer survival",7 of 10 and 10 of 10
same,survivor count,"T/C endpoint: median survival time, dose: 128.0 mg/kg/injection, schedule: Q01DX009 (ip), vehicle: saline with Tween-80, higher T/C = longer survival",10 of 10
COC(=O)C1CCC(NC(=O)N(CCCl)N=O)CC1 (stereo not drawn),T/C,"T/C endpoint: median survival time, dose: 15.0 mg/kg/injection, schedule: Q01DX001 (ip), vehicle: saline with Tween-80, higher T/C = longer survival",127 % of control
same,survivor count,"T/C endpoint: median survival time, dose: 34.0 mg/kg/injection, schedule: Q01DX001 (ip), vehicle: saline with Tween-80, higher T/C = longer survival",10 of 10 on day 11
same,survivor count,"T/C endpoint: median survival time, dose: 48.0 mg/kg/injection, schedule: Q01DX001 (ip), vehicle: saline with Tween-80, higher T/C = longer survival",10 of 10 on day 11
O=C(O)c1ccc(-c2ccccc2)cc1,survivor count,"T/C endpoint: mean tumor weight, dose: 300.0 mg/kg/injection, schedule: Q01DX011 (ip), vehicle: carboxymethylcellulose (CMC), higher T/C = larger tumour",0 of 6
same,survivor count,"T/C endpoint: mean tumor weight, dose: 450.0 mg/kg/injection, schedule: Q01DX011 (ip), vehicle: carboxymethylcellulose (CMC), higher T/C = larger tumour",0 of 6
CC(C)(C)C1CCC(NC(=O)N(CCCl)N=O)CC1 (stereo not drawn),T/C,"T/C endpoint: median survival time, dose: 210.0 mg/kg/injection, schedule: Q01DX001 (ip), vehicle: gum acacia, higher T/C = longer survival",125 % of control
same,T/C,"T/C endpoint: median survival time, dose: 316.0 mg/kg/injection, schedule: Q01DX001 (ip), vehicle: gum acacia, higher T/C = longer survival",142 % of control
same,survivor count,"T/C endpoint: median survival time, dose: 472.0 mg/kg/injection, schedule: Q01DX001 (ip), vehicle: gum acacia, higher T/C = longer survival",9 of 10 on day 15 and 10 of 10
O=P(N1CC1)(N1CC1)N1CC1,survivor count,"T/C endpoint: mean tumor weight, dose: 0.4 mg/kg/injection, schedule: Q01DX011 (ip), vehicle: other, higher T/C = larger tumour",3 of 6
same,survivor count,"T/C endpoint: mean tumor weight, dose: 2.0 mg/kg/injection, schedule: Q01DX011 (ip), vehicle: other, higher T/C = larger tumour",0 of 6
same,survivor count,"T/C endpoint: mean tumor weight, dose: 3.0 mg/kg/injection, schedule: Q01DX011 (ip), vehicle: other, higher T/C = larger tumour",0 of 6
same,survivor count,"T/C endpoint: mean tumor weight, dose: 5.0 mg/kg/injection, schedule: Q01DX011 (ip), vehicle: other, higher T/C = larger tumour",0 of 6
same,survivor count,"T/C endpoint: mean tumor weight, dose: 7.0 mg/kg/injection, schedule: Q01DX011 (ip), vehicle: other, higher T/C = larger tumour",0 of 6
same,survivor count,"T/C endpoint: median survival time, dose: 0.5 mg/kg/injection, schedule: Q01DX009 (ip), vehicle: saline, higher T/C = longer survival",10 of 10
same,survivor count,"T/C endpoint: median survival time, dose: 1.0 mg/kg/injection, schedule: Q01DX009 (ip), vehicle: saline, higher T/C = longer survival",9 of 10
same,survivor count,"T/C endpoint: median survival time, dose: 2.0 mg/kg/injection, schedule: Q01DX009 (ip), vehicle: saline, higher T/C = longer survival",10 of 10
same,survivor count,"T/C endpoint: median survival time, dose: 4.0 mg/kg/injection, schedule: Q01DX009 (ip), vehicle: saline, higher T/C = longer survival",10 of 10
same,survivor count,"T/C endpoint: median survival time, dose: 8.0 mg/kg/injection, schedule: Q01DX009 (ip), vehicle: saline, higher T/C = longer survival",10 of 10
same,survivor count,"T/C endpoint: median survival time, dose: 16.0 mg/kg/injection, schedule: Q01DX009 (ip), vehicle: saline, higher T/C = longer survival",10 of 10
CC(=O)O[C@H]1C(=O)[C@@]2(C)[C@H]([C@H](OC(=O)c3ccccc3)[C@]3(O)C[C@H](OC(=O)[C@H](O)[C@@H](NC(=O)c4ccccc4)c4ccccc4)C(C)=C1C3(C)C)[C@]1(OC(C)=O)CO[C@@H]1C[C@@H]2O,survivor count,"T/C endpoint: median survival time, dose: 9.0 mg/kg/injection, schedule: Q01DX009 (ip), vehicle: Klucel (hydroxypropylcellulose) (HPC), higher T/C = longer survival",10 of 10
same,survivor count,"T/C endpoint: median survival time, dose: 24.0 mg/kg/injection, schedule: Q04DX003 (ip), vehicle: Klucel (hydroxypropylcellulose) (HPC), higher T/C = longer survival",10 of 10
